These are yes or no findings as the source states them, for the method shown. In cells and extracts the contact can be indirect. Some entries that bind do so weakly or less than the wild type.
Target: HA-NR2E1 (UniProt Q9Y466)
Assay: co-IP; 293T cells co-expressing HA-NR2E1, Flag-LSD1 and LSD1-197-211 peptide; pull-down of HA-NR2E1 by Flag-LSD1 and reciprocal pull-down of Flag-LSD1 by HA-NR2E1

Sequences of proteins named here, by UniProt entry; tags and fusion partners are left off.
UniProt Q9Y466: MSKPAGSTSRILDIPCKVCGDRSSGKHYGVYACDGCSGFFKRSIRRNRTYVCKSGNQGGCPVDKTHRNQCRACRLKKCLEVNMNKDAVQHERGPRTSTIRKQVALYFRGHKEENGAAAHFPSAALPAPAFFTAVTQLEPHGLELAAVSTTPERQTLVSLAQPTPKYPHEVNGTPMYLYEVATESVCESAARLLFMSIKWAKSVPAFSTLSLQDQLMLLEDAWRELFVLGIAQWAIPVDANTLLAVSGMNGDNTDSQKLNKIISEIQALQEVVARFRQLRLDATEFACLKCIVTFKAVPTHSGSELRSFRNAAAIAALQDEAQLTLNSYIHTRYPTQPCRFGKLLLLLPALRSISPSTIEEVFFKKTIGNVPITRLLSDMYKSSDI

binding: binds
Binder: PDIISGPQQTQKVFL [LSD1-197-211 peptide]

Source: paper PMC9816925
